Reference: US8722690B2, “Mesoionic pesticides” (E I du Pont de Nemours and Company, priority 2009, dated 2014)
Where a name gives a salt, the structure may show the parent alone. Read-outs that look alike come from different tables or passages of the source. Some of these results come from one statement about several compounds together. For at least one compound, name, drawing or mass did not settle the structure.

Experiments:
Format in all cases: in vivo
[1] = test system: diamondback moth (Plutella xylostella); assay: Test A: control of diamondback moth on radish plant, foliar spray; conditions: 6 days, very good to excellent levels of control efficacy
[2] = test system: fall armyworm (Spodoptera frugiperda); assay: Test B: control of fall armyworm on maize plant, foliar spray; conditions: very good to excellent levels of control efficacy
[3] = test system: corn planthopper (Peregrinus maidis); conditions: 6 days, maize plant, very good to excellent levels of control efficacy
Method: For evaluating control of corn planthopper (Peregrinus maidis) through contact and/or systemic means, the test unit consisted of a small open container with a 3-4-day-old maize plant (spike) inside. White sand was added to the top of the soil prior to application. Test compounds were formulated and sprayed at 50 ppm and/or 10 ppm, and replicated three times as described for Test A. After spraying, the test units were allowed to dry for 1 h before they were post-infested with ˜15-20 nymphs (18 to 21 day old) by sprinkling them onto the sand with a salt shaker. A black, screened cap was placed on the top of each test unit, and the test units were held for 6 days in a growth chamber at 22-24° C. and 50-70% relative humidity. Each test unit was then visually assessed for insect mortality.

[4] = test system: potato leafhopper (Empoasca fabae); conditions: 6 days, Soleil bean plant, very good to excellent levels of control efficacy
[5] = test system: Western Flower Thrips (Frankliniella occidentalis); assay: Test G: control of Western Flower Thrips on Soleil bean plant, contact and/or systemic; conditions: 7 days, very good to excellent levels of control efficacy

Row | SMILES | control efficacy: feeding damage (40% or less feeding damage and/or 100% mortality) ([1]; sprayed at 10 ppm) [%] | control efficacy: feeding damage (40% or less feeding damage and/or 100% mortality) ([1]; sprayed at 50 ppm) [%] | control efficacy: feeding damage (40% or less feeding damage and/or 100% mortality) ([2]; sprayed at 10 ppm) [%] | control efficacy: feeding damage (40% or less feeding damage and/or 100% mortality) ([2]; sprayed at 50 ppm) [%] | control efficacy: mortality ([3]; sprayed at 50 ppm) [%] | control efficacy: mortality ([4]; sprayed at 50 ppm) [%] | control efficacy: mortality ([3]; sprayed at 10 ppm) [%] | control efficacy: mortality ([4]; sprayed at 10 ppm) [%] | control efficacy: plant damage (30% or less plant damage and/or 100% mortality) ([5]; sprayed at 10 ppm) [%] | control efficacy: plant damage (30% or less plant damage and/or 100% mortality) ([5]; sprayed at 50 ppm) [%] | control efficacy: plant damage (30% or less plant damage and/or 100% mortality) ([5]; sprayed at 250 ppm) [%]
1 | O=c1c(-c2cccc(OC(F)(F)F)c2)c([O-])[n+](Cc2cnc(Cl)s2)c2c(Br)cccn12 [Compound 1, 9-bromo-1-[(2-chloro-5-thiazolyl)methyl]-2-hydroxy-4-oxo-3-[3-(trifluoromethoxy)phenyl]-4H-pyrido[1,2-a]pyrimidinium inner salt] | ≤ 40 | ≤ 40 | ≤ 40 | ≤ 40 | ≥ 80 | ≥ 80 |  |  |  |  | 
2 | O=c1c(-c2cc(C(F)(F)F)cc(Cl)c2F)c([O-])[n+](Cc2cnc(Cl)s2)c2c(Br)cccn12 [Compound 21, 9-bromo-3-[3-chloro-2-fluoro-5-(trifluoromethyl)phenyl]-1-[(2-chloro-5-thiazolyl)methyl]-2-hydroxy-4-oxo-4H-pyrido[1,2-a]pyrimidinium inner salt] | ≤ 40 | ≤ 40 |  | ≤ 40 | ≥ 80 | ≥ 80 |  |  |  |  | 
3 | Cc1cccn2c(=O)c(-c3cccc(OC(F)(F)F)c3)c([O-])[n+](Cc3cnc(Cl)s3)c12 [Compound 26, 1-[(2-chloro-5-thiazolyl)methyl]-2-hydroxy-9-methyl-4-oxo-3-[3-(trifluoromethoxy)phenyl]-4H-pyrido[1,2-a]pyrimidinium inner salt] | ≤ 40 | ≤ 40 | ≤ 40 | ≤ 40 | ≥ 80 | ≥ 80 | ≥ 80 | ≥ 80 |  |  | 
4 | Cc1cccn2c(=O)c(-c3c(F)cccc3F)c([O-])[n+](Cc3cnc(Cl)s3)c12 [Compound 37, 1-[(2-chloro-5-thiazolyl)methyl]-3-(2,6-difluorophenyl)-2-hydroxy-9-methyl-4-oxo-4H-pyrido[1,2-a]pyrimidinium inner salt] | ≤ 40 | ≤ 40 |  | ≤ 40 |  | ≥ 80 | ≥ 80 | ≥ 80 |  |  | 
5 | Cc1cccn2c(=O)c(-c3ccccc3F)c([O-])[n+](Cc3cncnc3)c12 [Compound 44, 3-(2-fluorophenyl)-2-hydroxy-9-methyl-4-oxo-1-(5-pyrimidinylmethyl)-4H-pyrido[1,2-a]pyrimidinium inner salt] |  |  |  |  | ≥ 80 | ≥ 80 |  |  |  |  | 
6 | Cc1ccc[n+]2c(=O)c(-c3cc(C(F)(F)F)ccc3F)c([O-])n(Cc3cnc(Cl)s3)c12 [Compound 49, 1-[(2-chloro-5-thiazolyl)methyl]-3-[2-fluoro-5-(trifluoromethyl)phenyl]-2-hydroxy-9-methyl-4-oxo-4H-pyrido[1,2-a]pyrimidinium inner salt] | ≤ 40 | ≤ 40 | ≤ 40 | ≤ 40 | ≥ 80 | ≥ 80 | ≥ 80 | ≥ 80 |  |  | 
7 | COc1cccn2c(=O)c(-c3cccc(OC(F)(F)F)c3)c([O-])[n+](Cc3cnc(Cl)s3)c12 [Compound 51, 1-[(2-chloro-5-thiazolyl)methyl]-2-hydroxy-9-methoxy-4-oxo-3-[3-(trifluoromethoxy)phenyl]-4H-pyrido[1,2-a]pyrimidinium inner salt] | ≤ 40 | ≤ 40 | ≤ 40 | ≤ 40 | ≥ 80 | ≥ 80 |  | ≥ 80 |  |  | 
8 | COc1cccn2c(=O)c(-c3cc(C(F)(F)F)ccc3F)c([O-])[n+](Cc3cnc(Cl)s3)c12 [Compound 52, 1-[(2-chloro-5-thiazolyl)methyl]-3-[2-fluoro-5-(trifluoromethyl)phenyl]-2-hydroxy-9-methoxy-4-oxo-4H-pyrido[1,2-a]pyrimidinium inner salt] | ≤ 40 | ≤ 40 | ≤ 40 | ≤ 40 | ≥ 80 | ≥ 80 |  | ≥ 80 |  |  | 
9 | Cc1cccn2c(=O)c(-c3cc(C(F)(F)F)cc(Cl)c3F)c([O-])[n+](Cc3cnc(Cl)s3)c12 [Compound 57, 3-[3-chloro-2-fluoro-5-(trifluoromethyl)phenyl]-1-[(2-chloro-5-thiazolyl)methyl]-2-hydroxy-9-methyl-4-oxo-4H-pyrido[1,2-a]pyrimidinium inner salt] | ≤ 40 | ≤ 40 | ≤ 40 | ≤ 40 | ≥ 80 | ≥ 80 | ≥ 80 | ≥ 80 |  |  | 
10 | Cc1cc(Br)cn2c(=O)c(-c3cccc(C(F)(F)F)c3F)c([O-])[n+](Cc3cnc(Cl)s3)c12 [Compound 63, 7-bromo-1-[(2-chloro-5-thiazolyl)methyl]-3-[2-fluoro-3-(trifluoromethyl)phenyl]-2-hydroxy-9-methyl-4-oxo-4H-pyrido[1,2-a]pyrimidinium inner salt] | ≤ 40 | ≤ 40 | ≤ 40 | ≤ 40 | ≥ 80 | ≥ 80 | ≥ 80 | ≥ 80 |  |  | 
11 | Cc1cccn2c(=O)c(-c3cccc(I)c3)c([O-])[n+](Cc3cnc(Cl)s3)c12 [Compound 65, 1-[(2-chloro-5-thiazolyl)methyl]-2-hydroxy-3-(3-iodophenyl)-9-methyl-4-oxo-4H-pyrido[1,2-a]pyrimidinium inner salt] | ≤ 40 | ≤ 40 | ≤ 40 | ≤ 40 | ≥ 80 | ≥ 80 |  | ≥ 80 |  |  | 
12 | Cc1ncc(C[n+]2c([O-])c(-c3ccccc3F)c(=O)n3cccc(C)c32)s1 [Compound 77, 3-(2-fluorophenyl)-2-hydroxy-9-methyl-1-[(2-methyl-5-thiazolyl)methyl]-4-oxo-4H-pyrido[1,2-a]pyrimidinium inner salt] |  | ≤ 40 |  |  | ≥ 80 | ≥ 80 |  |  |  |  | 
13 | Cc1cccn2c(=O)c(-c3cccc(Br)c3)c([O-])[n+](Cc3cnc(Cl)s3)c12 [Compound 84, 3-(3-bromophenyl)-1-[(2-chloro-5-thiazolyl)methyl]-2-hydroxy-9-methyl-4-oxo-4H-pyrido[1,2-a]pyrimidinium inner salt] | ≤ 40 | ≤ 40 | ≤ 40 | ≤ 40 | ≥ 80 | ≥ 80 | ≥ 80 | ≥ 80 |  |  | 
14 | Cc1ccc(-c2c([O-])[n+](Cc3cnc(Cl)s3)c3c(C)cccn3c2=O)cc1-c1ccc(Cl)cc1F [Compound 346] | ≤ 40 |  | ≤ 40 |  |  |  |  |  | ≤ 30 | ≤ 30 | ≤ 30
15 | Cc1ccc(-c2c([O-])[n+](Cc3cnc(Cl)s3)c3c(C)cccn3c2=O)cn1 [Compound 379] | ≤ 40 |  |  |  | ≥ 80 |  |  |  |  |  | 
16 | Cc1cccn2c(=O)c(-c3ccccc3)c([O-])[n+](Cc3cncs3)c12 [Compound 475] | ≤ 40 |  |  |  | ≥ 80 |  |  |  |  |  | 
